{
  "sequences": {"note": "Sequences of proteins named here, by UniProt entry; tags and fusion partners are left off. A change or cut given only in a name is not applied to a line headed by its entry.", "UniProt Q86YS7": "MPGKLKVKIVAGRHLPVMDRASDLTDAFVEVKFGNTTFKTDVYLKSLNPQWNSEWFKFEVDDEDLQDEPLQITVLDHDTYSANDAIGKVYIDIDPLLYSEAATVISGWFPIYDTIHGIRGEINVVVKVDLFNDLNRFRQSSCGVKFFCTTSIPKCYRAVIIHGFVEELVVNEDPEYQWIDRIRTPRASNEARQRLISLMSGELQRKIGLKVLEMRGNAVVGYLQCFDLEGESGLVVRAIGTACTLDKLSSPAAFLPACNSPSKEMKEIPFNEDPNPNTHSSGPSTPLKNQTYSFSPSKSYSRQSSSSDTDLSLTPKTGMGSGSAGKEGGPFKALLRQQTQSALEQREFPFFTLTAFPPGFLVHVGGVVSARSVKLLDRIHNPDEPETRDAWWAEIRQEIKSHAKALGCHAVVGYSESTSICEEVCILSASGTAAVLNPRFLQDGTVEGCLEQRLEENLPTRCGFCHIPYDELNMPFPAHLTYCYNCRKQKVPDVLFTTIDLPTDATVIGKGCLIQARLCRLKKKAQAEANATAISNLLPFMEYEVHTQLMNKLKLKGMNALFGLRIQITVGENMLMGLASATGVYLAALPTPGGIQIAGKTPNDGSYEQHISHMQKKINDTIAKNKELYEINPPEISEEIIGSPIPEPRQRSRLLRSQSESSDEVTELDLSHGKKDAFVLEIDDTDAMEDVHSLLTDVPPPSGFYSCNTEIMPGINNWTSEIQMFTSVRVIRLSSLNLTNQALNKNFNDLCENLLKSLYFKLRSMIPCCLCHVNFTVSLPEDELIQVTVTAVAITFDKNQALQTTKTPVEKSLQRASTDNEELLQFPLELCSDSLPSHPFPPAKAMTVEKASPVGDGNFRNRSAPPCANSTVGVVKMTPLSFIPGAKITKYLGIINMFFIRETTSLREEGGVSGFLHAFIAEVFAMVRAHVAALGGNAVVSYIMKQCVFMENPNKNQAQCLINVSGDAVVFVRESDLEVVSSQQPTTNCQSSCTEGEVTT", "UniProt Q7L2J0": "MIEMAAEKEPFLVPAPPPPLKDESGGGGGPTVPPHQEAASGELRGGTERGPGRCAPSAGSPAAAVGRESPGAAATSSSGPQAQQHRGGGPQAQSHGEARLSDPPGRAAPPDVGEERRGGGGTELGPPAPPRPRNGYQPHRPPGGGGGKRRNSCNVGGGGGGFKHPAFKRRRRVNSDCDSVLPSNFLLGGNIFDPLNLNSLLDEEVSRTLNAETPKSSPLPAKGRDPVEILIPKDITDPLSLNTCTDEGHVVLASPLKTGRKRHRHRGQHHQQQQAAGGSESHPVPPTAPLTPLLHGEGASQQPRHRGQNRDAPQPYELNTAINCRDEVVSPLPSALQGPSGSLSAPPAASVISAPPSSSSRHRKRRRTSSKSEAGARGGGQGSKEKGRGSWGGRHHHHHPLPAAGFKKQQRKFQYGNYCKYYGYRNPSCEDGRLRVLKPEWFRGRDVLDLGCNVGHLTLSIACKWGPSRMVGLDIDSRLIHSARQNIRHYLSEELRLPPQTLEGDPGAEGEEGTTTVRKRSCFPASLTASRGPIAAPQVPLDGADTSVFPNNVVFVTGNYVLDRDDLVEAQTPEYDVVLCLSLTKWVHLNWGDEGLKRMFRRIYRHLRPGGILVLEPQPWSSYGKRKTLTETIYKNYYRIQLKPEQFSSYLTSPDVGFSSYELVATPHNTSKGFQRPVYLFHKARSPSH", "UniProt Q7Z4G1, whole entry": "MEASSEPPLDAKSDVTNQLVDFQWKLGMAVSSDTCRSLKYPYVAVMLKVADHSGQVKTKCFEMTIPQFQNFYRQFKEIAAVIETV", "UniProt Q86XL3": "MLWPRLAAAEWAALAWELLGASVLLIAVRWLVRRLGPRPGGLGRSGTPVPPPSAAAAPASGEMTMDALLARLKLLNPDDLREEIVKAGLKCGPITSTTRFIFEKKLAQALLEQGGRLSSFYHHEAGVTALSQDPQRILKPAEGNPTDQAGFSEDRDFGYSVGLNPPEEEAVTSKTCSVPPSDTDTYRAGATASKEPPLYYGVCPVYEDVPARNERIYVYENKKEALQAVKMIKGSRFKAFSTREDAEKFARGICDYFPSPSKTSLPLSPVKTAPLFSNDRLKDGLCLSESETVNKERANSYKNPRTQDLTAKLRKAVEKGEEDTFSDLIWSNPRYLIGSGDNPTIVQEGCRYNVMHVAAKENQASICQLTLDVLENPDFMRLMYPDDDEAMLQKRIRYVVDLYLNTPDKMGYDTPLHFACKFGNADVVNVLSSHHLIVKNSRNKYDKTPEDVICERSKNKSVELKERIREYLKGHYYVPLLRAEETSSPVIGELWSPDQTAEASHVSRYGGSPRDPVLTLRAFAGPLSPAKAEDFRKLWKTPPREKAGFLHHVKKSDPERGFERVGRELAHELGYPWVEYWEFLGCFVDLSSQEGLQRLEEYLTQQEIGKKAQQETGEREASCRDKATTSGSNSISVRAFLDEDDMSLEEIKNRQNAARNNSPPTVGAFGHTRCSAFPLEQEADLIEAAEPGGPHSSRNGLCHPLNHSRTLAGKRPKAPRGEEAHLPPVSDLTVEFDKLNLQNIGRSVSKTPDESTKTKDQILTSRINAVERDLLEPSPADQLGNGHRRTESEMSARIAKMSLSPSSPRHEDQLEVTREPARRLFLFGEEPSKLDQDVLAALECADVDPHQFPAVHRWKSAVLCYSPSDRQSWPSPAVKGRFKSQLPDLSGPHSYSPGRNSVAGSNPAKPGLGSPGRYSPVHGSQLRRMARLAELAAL", "UniProt Q7Z333": "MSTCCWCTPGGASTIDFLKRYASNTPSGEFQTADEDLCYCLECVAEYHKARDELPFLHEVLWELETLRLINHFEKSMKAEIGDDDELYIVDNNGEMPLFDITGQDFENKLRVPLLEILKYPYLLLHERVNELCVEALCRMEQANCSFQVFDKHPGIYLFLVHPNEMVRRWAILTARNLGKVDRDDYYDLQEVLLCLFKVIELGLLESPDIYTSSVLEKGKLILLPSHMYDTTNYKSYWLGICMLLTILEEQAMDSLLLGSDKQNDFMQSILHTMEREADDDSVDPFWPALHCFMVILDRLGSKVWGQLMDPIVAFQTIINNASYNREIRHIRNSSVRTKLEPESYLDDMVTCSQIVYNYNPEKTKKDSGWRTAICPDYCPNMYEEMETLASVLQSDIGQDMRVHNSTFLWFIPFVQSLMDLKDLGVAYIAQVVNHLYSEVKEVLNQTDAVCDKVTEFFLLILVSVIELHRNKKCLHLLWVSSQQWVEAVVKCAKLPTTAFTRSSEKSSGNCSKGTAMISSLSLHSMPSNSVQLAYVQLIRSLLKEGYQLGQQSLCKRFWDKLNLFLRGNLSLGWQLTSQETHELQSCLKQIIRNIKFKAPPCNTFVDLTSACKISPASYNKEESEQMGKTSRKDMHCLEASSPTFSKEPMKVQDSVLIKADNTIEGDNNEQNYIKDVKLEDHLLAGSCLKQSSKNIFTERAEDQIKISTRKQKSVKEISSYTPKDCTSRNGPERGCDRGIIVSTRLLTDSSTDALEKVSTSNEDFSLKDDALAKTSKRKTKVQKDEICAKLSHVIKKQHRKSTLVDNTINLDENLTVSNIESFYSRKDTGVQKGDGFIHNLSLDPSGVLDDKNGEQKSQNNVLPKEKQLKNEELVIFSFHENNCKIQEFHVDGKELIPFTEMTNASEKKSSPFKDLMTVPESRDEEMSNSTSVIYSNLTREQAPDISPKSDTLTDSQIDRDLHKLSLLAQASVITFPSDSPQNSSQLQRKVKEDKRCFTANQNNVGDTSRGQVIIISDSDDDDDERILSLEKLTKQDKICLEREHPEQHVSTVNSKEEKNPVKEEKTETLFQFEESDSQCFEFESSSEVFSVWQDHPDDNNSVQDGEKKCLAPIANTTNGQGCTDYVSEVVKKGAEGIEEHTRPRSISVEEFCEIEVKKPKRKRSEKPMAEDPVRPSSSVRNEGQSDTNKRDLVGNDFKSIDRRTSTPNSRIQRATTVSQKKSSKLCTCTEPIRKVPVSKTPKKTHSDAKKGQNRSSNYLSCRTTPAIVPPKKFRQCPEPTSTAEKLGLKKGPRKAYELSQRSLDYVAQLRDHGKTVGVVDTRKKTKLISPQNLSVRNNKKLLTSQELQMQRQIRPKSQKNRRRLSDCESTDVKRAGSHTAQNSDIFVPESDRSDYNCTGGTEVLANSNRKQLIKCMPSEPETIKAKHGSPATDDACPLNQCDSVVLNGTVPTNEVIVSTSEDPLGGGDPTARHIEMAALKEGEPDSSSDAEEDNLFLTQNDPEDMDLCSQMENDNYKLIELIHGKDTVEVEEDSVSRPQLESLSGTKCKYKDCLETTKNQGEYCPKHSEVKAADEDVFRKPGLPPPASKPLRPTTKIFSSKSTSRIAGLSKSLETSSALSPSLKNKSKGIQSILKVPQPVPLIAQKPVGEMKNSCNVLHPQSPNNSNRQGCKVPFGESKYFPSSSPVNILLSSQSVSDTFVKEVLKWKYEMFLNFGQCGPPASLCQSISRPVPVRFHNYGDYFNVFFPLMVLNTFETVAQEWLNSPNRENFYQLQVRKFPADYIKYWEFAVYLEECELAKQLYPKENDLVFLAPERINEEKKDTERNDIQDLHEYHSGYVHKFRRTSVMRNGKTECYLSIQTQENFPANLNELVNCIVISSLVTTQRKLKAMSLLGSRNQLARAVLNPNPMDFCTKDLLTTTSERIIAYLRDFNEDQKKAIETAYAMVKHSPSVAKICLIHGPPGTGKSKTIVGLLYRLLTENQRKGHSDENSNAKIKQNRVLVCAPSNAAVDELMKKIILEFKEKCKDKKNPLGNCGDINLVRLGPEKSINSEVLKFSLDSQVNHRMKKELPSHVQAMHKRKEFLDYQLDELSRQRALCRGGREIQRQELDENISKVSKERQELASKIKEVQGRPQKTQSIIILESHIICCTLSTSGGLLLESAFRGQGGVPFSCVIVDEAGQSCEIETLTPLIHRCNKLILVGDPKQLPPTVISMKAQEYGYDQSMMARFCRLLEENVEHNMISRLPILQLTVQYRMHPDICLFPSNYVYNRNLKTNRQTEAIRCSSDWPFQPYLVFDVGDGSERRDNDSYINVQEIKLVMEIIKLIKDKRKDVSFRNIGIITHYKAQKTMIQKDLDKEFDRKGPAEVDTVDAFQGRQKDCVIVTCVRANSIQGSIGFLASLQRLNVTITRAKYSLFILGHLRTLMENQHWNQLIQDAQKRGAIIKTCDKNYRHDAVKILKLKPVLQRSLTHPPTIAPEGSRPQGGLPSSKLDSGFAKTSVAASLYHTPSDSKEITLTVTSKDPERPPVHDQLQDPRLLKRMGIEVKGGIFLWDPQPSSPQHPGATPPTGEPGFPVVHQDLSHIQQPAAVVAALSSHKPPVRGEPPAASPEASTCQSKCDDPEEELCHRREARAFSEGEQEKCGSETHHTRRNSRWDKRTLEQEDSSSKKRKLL", "UniProt Q86V48": "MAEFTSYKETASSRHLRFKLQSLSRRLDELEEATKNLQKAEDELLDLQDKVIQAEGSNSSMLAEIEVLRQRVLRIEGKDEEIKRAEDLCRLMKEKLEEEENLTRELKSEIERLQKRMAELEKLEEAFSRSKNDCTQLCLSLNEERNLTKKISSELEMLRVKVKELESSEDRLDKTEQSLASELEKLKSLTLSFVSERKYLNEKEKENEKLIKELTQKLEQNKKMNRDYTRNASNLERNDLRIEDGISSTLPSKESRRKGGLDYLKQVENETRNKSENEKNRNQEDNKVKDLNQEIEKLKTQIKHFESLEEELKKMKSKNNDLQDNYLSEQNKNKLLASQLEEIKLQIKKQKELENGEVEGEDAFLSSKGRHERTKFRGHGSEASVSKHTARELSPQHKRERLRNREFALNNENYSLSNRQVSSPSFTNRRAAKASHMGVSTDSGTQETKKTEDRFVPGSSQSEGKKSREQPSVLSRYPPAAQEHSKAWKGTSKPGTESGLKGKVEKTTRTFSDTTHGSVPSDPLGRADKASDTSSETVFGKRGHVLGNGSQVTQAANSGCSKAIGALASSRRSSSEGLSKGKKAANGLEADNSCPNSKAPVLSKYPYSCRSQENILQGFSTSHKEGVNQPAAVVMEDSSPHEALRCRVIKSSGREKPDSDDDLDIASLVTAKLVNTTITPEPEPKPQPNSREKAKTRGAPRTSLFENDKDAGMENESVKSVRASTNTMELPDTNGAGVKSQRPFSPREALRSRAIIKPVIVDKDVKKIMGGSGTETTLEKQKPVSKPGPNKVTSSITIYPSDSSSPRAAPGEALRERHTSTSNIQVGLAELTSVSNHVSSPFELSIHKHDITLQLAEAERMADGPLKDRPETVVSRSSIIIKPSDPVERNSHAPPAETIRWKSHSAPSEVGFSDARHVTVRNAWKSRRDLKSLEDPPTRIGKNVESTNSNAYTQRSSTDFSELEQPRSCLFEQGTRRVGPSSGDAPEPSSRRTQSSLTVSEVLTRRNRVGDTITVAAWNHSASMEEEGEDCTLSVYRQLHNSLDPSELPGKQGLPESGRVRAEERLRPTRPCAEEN"},
  "source": "the supplement of paper PMC11006884",
  "note": "Only a part is listed here, and it is no random draw.",
  "data": [
    {"compound": "COC(=O)C#Cc1ccccc1 [methyl 3-phenylpropiolate]", "test": "log2 ratio of iodoacetamide-alkyne labeling of the cysteine site, DMSO over compound (competition); higher = stronger covalent engagement of the cysteine by the compound, active = 1 or more", "details": "500 µM; treatment time 1 h; system: HEK293T cell lysate", "summary_of_the_method": "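HEK293T lysate (2 mg/mL) was treated with DMSO or electrophile (500 µM, 1 h, ambient temperature), then iodoacetamide alkyne (1 h), clicked to sCIP-TMT reagents, pooled, trypsin-digested overnight at 37 °C, streptavidin-enriched and acid-eluted. Peptides were run on Orbitrap Eclipse LC-MS/MS with FAIMS and quantified in FragPipe. The log2 competition ratio per cysteine is mean control-channel over mean compound-channel reporter intensity. Duplicate channels and three replicates were used, and cysteines quantified in only one replicate were excluded.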", "values": [
      {"target": "CAND1 C92 (UniProt Q86VP6)", "log2 ratio of iodoacetamide-alkyne labeling": "inactive: -0.0312"},
      {"target": "KTN1 C303 (UniProt Q86UP2)", "log2 ratio of iodoacetamide-alkyne labeling": "inactive: 0.0888"},
      {"target": "UniProt Q7Z2Z2_C604", "log2 ratio of iodoacetamide-alkyne labeling": "inactive: 0.247"},
      {"target": "SMC5 C881 (UniProt Q8IY18)", "log2 ratio of iodoacetamide-alkyne labeling": "inactive: 0.165"},
      {"target": "ANKMY2 C277 (UniProt Q8IV38)", "log2 ratio of iodoacetamide-alkyne labeling": "inactive: 0.213"},
      {"target": "HPS6 C695 (UniProt Q86YV9)", "log2 ratio of iodoacetamide-alkyne labeling": "inactive: 0.394"},
      {"target": "UniProt Q86YS7_C831", "log2 ratio of iodoacetamide-alkyne labeling": "inactive: 0.37"},
      {"target": "DHX29 C1025 (UniProt Q7Z478)", "log2 ratio of iodoacetamide-alkyne labeling": "inactive: 0.0649"},
      {"target": "UniProt Q7L0Y3_C78", "log2 ratio of iodoacetamide-alkyne labeling": "inactive: 0.17"},
      {"target": "ZC3HC1 C429 (UniProt Q86WB0)", "log2 ratio of iodoacetamide-alkyne labeling": "inactive: 0.297"},
      {"target": "MEPCE C324 (UniProt Q7L2J0)", "log2 ratio of iodoacetamide-alkyne labeling": "inactive: 0.183"},
      {"target": "UniProt Q8IYL2_C666", "log2 ratio of iodoacetamide-alkyne labeling": "inactive: 0.579"},
      {"target": "UniProt Q86Y56_C841", "log2 ratio of iodoacetamide-alkyne labeling": "inactive: 0.052"},
      {"target": "TSEN54 C338 (UniProt Q7Z6J9)", "log2 ratio of iodoacetamide-alkyne labeling": "inactive: 0.107"},
      {"target": "CEP97 C336 (UniProt Q8IW35)", "log2 ratio of iodoacetamide-alkyne labeling": "inactive: 0.493"},
      {"target": "HUWE1 C1278 (UniProt Q7Z6Z7)", "log2 ratio of iodoacetamide-alkyne labeling": "inactive: -0.239"},
      {"target": "UniProt Q8IY26_C55", "log2 ratio of iodoacetamide-alkyne labeling": "inactive: 0.993"},
      {"target": "N4BP2 C1145 (UniProt Q86UW6)", "log2 ratio of iodoacetamide-alkyne labeling": "inactive: 0.418"},
      {"target": "COMMD6 C60 (UniProt Q7Z4G1)", "log2 ratio of iodoacetamide-alkyne labeling": "inactive: 0.41"},
      {"target": "ERMP1 C43 (UniProt Q7Z2K6)", "log2 ratio of iodoacetamide-alkyne labeling": "inactive: 0.649"},
      {"target": "CYFIP1 C1088 (UniProt Q7L576)", "log2 ratio of iodoacetamide-alkyne labeling": "inactive: -0.14"},
      {"target": "LARP4 C599 (UniProt Q71RC2)", "log2 ratio of iodoacetamide-alkyne labeling": "inactive: 0.484"},
      {"target": "UniProt Q8IX01_C447", "log2 ratio of iodoacetamide-alkyne labeling": "inactive: 0.259"},
      {"target": "UniProt Q7Z4H7_C885", "log2 ratio of iodoacetamide-alkyne labeling": "inactive: 0.286"},
      {"target": "UniProt Q7Z2Z2_C646", "log2 ratio of iodoacetamide-alkyne labeling": "inactive: 0.404"},
      {"target": "SUPT6H C575 (UniProt Q7KZ85)", "log2 ratio of iodoacetamide-alkyne labeling": "inactive: -0.0128"},
      {"target": "SUPT6H C1198 (UniProt Q7KZ85)", "log2 ratio of iodoacetamide-alkyne labeling": "inactive: -0.0405"},
      {"target": "HEATR3 C534 (UniProt Q7Z4Q2)", "log2 ratio of iodoacetamide-alkyne labeling": "inactive: 0.405"},
      {"target": "DIS3L2 C146 (UniProt Q8IYB7)", "log2 ratio of iodoacetamide-alkyne labeling": "inactive: 0.38"},
      {"target": "CENPV C240 (UniProt Q7Z7K6)", "log2 ratio of iodoacetamide-alkyne labeling": "inactive: -0.145"},
      {"target": "ANKLE2 C254 (UniProt Q86XL3)", "log2 ratio of iodoacetamide-alkyne labeling": "inactive: 0.948"},
      {"target": "MEPCE C177 (UniProt Q7L2J0)", "log2 ratio of iodoacetamide-alkyne labeling": "inactive: 0.0621"},
      {"target": "SETX C2451 (UniProt Q7Z333)", "log2 ratio of iodoacetamide-alkyne labeling": "inactive: 0.616"},
      {"target": "LUZP1 C969 (UniProt Q86V48)", "log2 ratio of iodoacetamide-alkyne labeling": "active: 1.01"},
      {"target": "SLFN11 C6 (UniProt Q7Z7L1)", "log2 ratio of iodoacetamide-alkyne labeling": "inactive: 0.329"},
      {"target": "CAND1 C179 (UniProt Q86VP6)", "log2 ratio of iodoacetamide-alkyne labeling": "inactive: 0.0348"},
      {"target": "DHX30 C484 (UniProt Q7L2E3)", "log2 ratio of iodoacetamide-alkyne labeling": "inactive: 0.24"}
    ]}
  ]
}
